# This is one part of the list. Single values are uncertain, as repeats are few or missing.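 The apoptosis fraction was the count of cleaved-PARP antibody-stained nuclei relative to all DNA-stained nuclei, imaged in 1,536-well plates. Screening doses were set so most cells survived, and baseline and induced cleaved-PARP levels vary greatly across cell lines.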
# Tested on: CBRC008 (line from a melanoma biopsy)
# Test: cleaved PARP positive nuclei fraction relative to DMSO control; melanoma cells; higher = more apoptosis
# Details: library dose: low library concentration; 72 h
row,Compound,cleaved PARP positive nuclei fraction [%]
1,"CC1(C)CCC(c2ccc(Cl)cc2)=C(CN2CCN(c3ccc(C(=O)NS(=O)(=O)c4ccc(N[C@H](CCN5CCOCC5)CSc5ccccc5)c(S(=O)(=O)C(F)(F)F)c4)cc3)CC2)C1 + Cc1cc([N+](=O)[O-])ccc1NS(=O)(=O)c1cc(Cl)ccc1Cl [FH535] (first compound 0.4 µM, partner dose 1 µM)",1590
2,"CCN(CC)CCNC(=O)c1c(C)[nH]c(/C=C2\C(=O)Nc3ccc(F)cc32)c1C [sunitinib] + Cc1cc([N+](=O)[O-])ccc1NS(=O)(=O)c1cc(Cl)ccc1Cl [FH535] (first compound 0.4 µM, partner dose 1 µM)",1010
3,"Cn1sc(=O)n(Cc2ccccc2)c1=O + COc1cc2ncnc(Nc3ccc(Oc4ccccc4)cc3)c2cc1OC [SrcI1] (first compound 0.4 µM, partner dose 2 µM)",107
4,"NC1(c2ccc(-c3nc4ccn5c(=O)[nH]nc5c4cc3-c3ccccc3)cc2)CCC1 + COC(=O)c1sccc1S(=O)(=O)Nc1ccc(Nc2ccccc2)cc1OC [GSK0660] (first compound 0.4 µM, partner dose 1 µM)",62.2
5,"CN(c1ncccc1CNc1nc(Nc2ccc3c(c2)CC(=O)N3)ncc1C(F)(F)F)S(C)(=O)=O + CC(C)CCN1c2nc(Nc3cc(F)c(O)c(F)c3)ncc2N(C)C(=O)C1C [BID1870] (first compound 0.08 µM, partner dose 0.2 µM)",315
6,"Cn1sc(=O)n(Cc2ccccc2)c1=O + O=C(Nc1ccccc1)c1cc([N+](=O)[O-])ccc1Cl [GW9662] (first compound 0.4 µM, partner dose 2 µM)",81.3

# Reference: the supplement of paper PMC4604168 (melanoma cell lines)
